Measured values taken from patent publication US20030125363A1, “Riluzole and alpha-tocopherol combination” (priority 1998, published 2003).

System: patients suffering from ALS
Settings: fatigability

For `Nc1nc2ccc(OC(F)(F)F)cc2s1` [RILUZOLE AND PLACEBO, 2-amino-6-trifluoromethoxybenzothiazole], the “Δ M0-M3 (VAS)” value (change of mean value between inclusion and 3 months) was 17.3 mm, the “VAS at M3” value (mean value, at 3 months) was 65.7 mm and the “VAS at M0” value (mean value, baseline at inclusion M0) was 48.4 mm.
